# Some of the results follow.
# B1: Latrophilin-3 (Homo sapiens), Q9HAR2 (protein)
# chain: MWPSQLLIFMMLLAPIIHAFSRAPIPMAVVRRELSCESYPIELRCPGTDVIMIESANYGRTDDKICDSDPAQMENIRCYLPDAYKIMSQRCNNRTQCAVVAGPDVFPDPCPGTYKYLEVQYECVPYKVEQKVFLCPGLLKGVYQSEHLFESDHQSGAWCKDPLQASDKIYYMPWTPYRTDTLTEYSSKDDFIAGRPTTTYKLPHRVDGTGFVVYDGALFFNKERTRNIVKFDLRTRIKSGEAIIANANYHDTSPYRWGGKSDIDLAVDENGLWVIYATEQNNGKIVISQLNPYTLRIEGTWDTAYDKRSASNAFMICGILYVVKSVYEDDDNEATGNKIDYIYNTDQSKDSLVDVPFPNSYQYIAAVDYNPRDNLLYVWNNYHVVKYSLDFGPLDSRSGQAHHGQVSYISPPIHLDSELERPSVKDISTTGPLGMGSTTTSTTLRTTTLSPGRSTTPSVSGRRNRSTSTPSPAVEVLDDMTTHLPSASSQIPALEESCEAVEAREIMWFKTRQGQIAKQPCPAGTIGVSTYLCLAPDGIWDPQGPDLSNCSSPWVNHITQKLKSGETAANIARELAEQTRNHLNAGDITYSVRAMDQLVGLLDVQLRNLTPGGKDSAARSLNKAMVETVNNLLQPQALNAWRDLTTSDQLRAATMLLHTVEESAFVLADNLLKTDIVRENTDNIKLEVARLSTEGNLEDLKFPENMGHGSTIQLSANTLKQNGRNGEIRVAFVLYNNLGPYLSTENASMKLGTEALSTNHSVIVNSPVITAAINKEFSNKVYLADPVVFTVKHIKQSEENFNPNCSFWSYSKRTMTGYWSTQGCRLLTTNKTHTTCSCNHLTNFAVLMAHVEVKHSDAVHDLLLDVITWVGILLSLVCLLICIFTFCFFRGLQSDRNTIHKNLCISLFVAELLFLIGINRTDQPIACAVFAALLHFFFLAAFTWMFLEGVQLYIMLVEVFESEHSRRKYFYLVGYGMPALIVAVSAAVDYRSYGTDKVCWLRLDTYFIWSFIGPATLIIMLNVIFLGIALYKMFHHTAILKPESGCLDNIKSWVIGAIALLCLLGLTWAFGLMYINESTVIMAYLFTIFNSLQGMFIFIFHCVLQKKVRKEYGKCLRTHCCSGKSTESSIGSGKTSGSRTPGRYSTGSQSRIRRMWNDTVRKQSESSFITGDINSSASLNREGLLNNARDTSVMDTLPLNGNHGNSYSIASGEYLSNCVQIIDRGYNHNETALEKKILKELTSNYIPSYLNNHERSSEQNRNLMNKLVNNLGSGREDDAIVLDDATSFNHEESLGLELIHEESDAPLLPPRVYSTENHQPHHYTRRRIPQDHSESFFPLLTNEHTEDLQSPHRDSLYTSMPTLAGVAATESVTTSTQTEPPPAKCGDAEDVYYKSMPNLGSRNHVHQLHTYYQLGRGSSDGFIVPPNKDGTPPEGSSKGPAHLVTSL
# Assays:
# Assay in all cases: glycan array binding signal (z-score within array); higher = stronger binding
# Conditions in all cases: glycan notation: IUPAC condensed, linker removed
# GlcA(b1-3)GlcNAc = target: GlcA(b1-3)GlcNAc
# Outline: (§1)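 Glycan array binding is given as a within-array Z-score, which can be read as non-binding when negative. The arrays, 3228 of them, came from the Consortium for Functional Glycomics database and were retained only where the protein sequence was available. Z-scores were averaged across arrays of the same protein sequence at different concentrations or buffers and across linkers.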
# GlcA(b1-6)Gal = target: GlcA(b1-6)Gal
# Outline: as §1
# [1] = target: GlcNAc(a1-3)Gal(b1-4)GlcNAc
# Outline: as §1
# [2] = target: GlcNAc(a1-4)Gal(b1-3)GlcNAc
# Outline: as §1
# [3] = target: GlcNAc(a1-4)Gal(b1-4)GalNAc
# Outline: as §1
# [4] = target: GlcNAc(a1-4)Gal(b1-4)GlcNAc
# Outline: as §1
# [5] = target: GlcNAc(a1-4)Gal(b1-4)GlcNAc(b1-3)Gal(b1-4)Glc
# Outline: as §1
# [6] = target: GlcNAc(a1-4)Gal(b1-4)GlcNAc(b1-3)Gal(b1-4)GlcNAc
# Outline: as §1
# [7] = target: GlcNAc(a1-4)Gal(b1-4)GlcNAc(b1-3)Gal(b1-4)GlcNAc(b1-3)Gal(b1-4)GlcNAc
# Outline: as §1
# [8] = target: GlcNAc(a1-4)Gal(b1-4)GlcNAc(b1-3)Gal(b1-4)[Fuc(a1-3)]GlcNAc(b1-3)Gal(b1-4)[Fuc(a1-3)]GlcNAc
# Outline: as §1
# [9] = target: GlcNAc(a1-6)Gal(b1-4)GlcNAc
# Outline: as §1
# [10] = target: GlcNAc(b1-2)Gal(b1-3)GalNAc
# Outline: as §1
# [11] = target: GlcNAc(b1-2)Man(a1-3)[GlcNAc(b1-2)Man(a1-6)]Man(b1-4)GlcNAc(b1-4)GlcNAc
# Outline: as §1
# [12] = target: GlcNAc(b1-2)Man(a1-3)[GlcNAc(b1-2)Man(a1-6)]Man(b1-4)GlcNAc(b1-4)[Fuc(a1-6)]GlcNAc
# Outline: as §1
# [13] = target: GlcNAc(b1-2)Man(a1-3)[GlcNAc(b1-4)][GlcNAc(b1-2)Man(a1-6)]Man(b1-4)GlcNAc(b1-4)GlcNAc
# Outline: as §1
# [14] = target: GlcNAc(b1-2)[GlcNAc(b1-4)]Man(a1-3)[GlcNAc(b1-2)Man(a1-6)]Man(b1-4)GlcNAc(b1-4)GlcNAc
# Outline: as §1
# [15] = target: GlcNAc(b1-2)[GlcNAc(b1-4)]Man(a1-3)[GlcNAc(b1-4)][GlcNAc(b1-2)Man(a1-6)]Man(b1-4)GlcNAc(b1-4)GlcNAc
# Outline: as §1
# [16] = target: GlcNAc(b1-2)[GlcNAc(b1-4)]Man(a1-3)[GlcNAc(b1-4)][GlcNAc(b1-2)[GlcNAc(b1-6)]Man(a1-6)]Man(b1-4)GlcNAc(b1-4)GlcNAc
# Outline: as §1
# [17] = target: GlcNAc(b1-2)[GlcNAc(b1-4)]Man(a1-3)[GlcNAc(b1-4)][GlcNAc(b1-2)[GlcNAc(b1-6)]Man(a1-6)]Man(b1-4)GlcNAc(b1-4)[Fuc(a1-6)]GlcNAc
# Outline: as §1
# [18] = target: GlcNAc(b1-2)[GlcNAc(b1-6)]Man(a1-6)[GlcNAc(b1-2)Man(a1-3)]Man(b1-4)GlcNAc(b1-4)GlcNAc
# Outline: as §1
# [19] = target: GlcNAc(b1-2)[GlcNAc(b1-6)]Man(a1-6)[GlcNAc(b1-2)Man(a1-3)]Man(b1-4)GlcNAc(b1-4)[Fuc(a1-6)]GlcNAc
# Outline: as §1
# [20] = target: GlcNAc(b1-2)[GlcNAc(b1-6)]Man(a1-6)[GlcNAc(b1-2)Man(a1-3)][GlcNAc(b1-4)]Man(b1-4)GlcNAc(b1-4)GlcNAc
# Outline: as §1
# GlcNAc(b1-3)Gal = target: GlcNAc(b1-3)Gal
# Outline: as §1
binder,measurement,setting,value
B1,glycan array binding signal (z-score),GlcA(b1-3)GlcNAc,-1.03
same,glycan array binding signal (z-score),GlcA(b1-6)Gal,1.65
same,glycan array binding signal (z-score),[1],-0.933
same,glycan array binding signal (z-score),[2],0.839
same,glycan array binding signal (z-score),[3],-0.452
same,glycan array binding signal (z-score),[4],-0.448
same,glycan array binding signal (z-score),[5],-1.34
same,glycan array binding signal (z-score),[6],1.28
same,glycan array binding signal (z-score),[7],0.437
same,glycan array binding signal (z-score),[8],2.21
same,glycan array binding signal (z-score),[9],-0.797
same,glycan array binding signal (z-score),[10],1.25
same,glycan array binding signal (z-score),[11],0.561
same,glycan array binding signal (z-score),[12],-1.04
same,glycan array binding signal (z-score),[13],-0.579
same,glycan array binding signal (z-score),[14],0.886
same,glycan array binding signal (z-score),[15],0.562
same,glycan array binding signal (z-score),[16],-0.645
same,glycan array binding signal (z-score),[17],0.388
same,glycan array binding signal (z-score),[18],0.23
same,glycan array binding signal (z-score),[19],2.14
same,glycan array binding signal (z-score),[20],-0.448
same,glycan array binding signal (z-score),GlcNAc(b1-3)Gal,-0.541

# 2 successive records from above:
binder,measurement,setting,value
B1,glycan array binding signal (z-score),[3],-0.452
same,glycan array binding signal (z-score),[4],-0.448
